The values that follow come from US20250101108A1, “METHODS TO ENHANCE THERAPEUTIC EFFICACY IN MELANOMA VIA MODULATION OF CELL SURFACE PD-L1/L2” (THE REGENTS OF THE UNIVERSITY OF CALIFORNIA, priority 2021, published 2025).

Protein sequences, listed by entry. Tags and fused reporters are not part of them. Residues count along the entry.
UniProt Q9BQ51, residues 20-273: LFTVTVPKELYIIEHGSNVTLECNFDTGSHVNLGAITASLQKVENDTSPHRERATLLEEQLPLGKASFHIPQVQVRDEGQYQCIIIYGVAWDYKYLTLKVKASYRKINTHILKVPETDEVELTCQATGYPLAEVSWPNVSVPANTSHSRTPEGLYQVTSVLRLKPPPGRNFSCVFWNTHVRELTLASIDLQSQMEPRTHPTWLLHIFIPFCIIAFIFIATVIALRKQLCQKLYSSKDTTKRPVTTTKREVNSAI
UniProt Q9NZQ7, residues 19-290: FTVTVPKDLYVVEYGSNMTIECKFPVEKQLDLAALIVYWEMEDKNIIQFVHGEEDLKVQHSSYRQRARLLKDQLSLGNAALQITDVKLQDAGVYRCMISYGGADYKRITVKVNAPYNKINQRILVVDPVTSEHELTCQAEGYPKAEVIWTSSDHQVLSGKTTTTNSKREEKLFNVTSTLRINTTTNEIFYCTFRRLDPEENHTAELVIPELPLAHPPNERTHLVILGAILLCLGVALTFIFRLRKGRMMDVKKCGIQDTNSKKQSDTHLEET
UniProt Q96J02, residues 2-903: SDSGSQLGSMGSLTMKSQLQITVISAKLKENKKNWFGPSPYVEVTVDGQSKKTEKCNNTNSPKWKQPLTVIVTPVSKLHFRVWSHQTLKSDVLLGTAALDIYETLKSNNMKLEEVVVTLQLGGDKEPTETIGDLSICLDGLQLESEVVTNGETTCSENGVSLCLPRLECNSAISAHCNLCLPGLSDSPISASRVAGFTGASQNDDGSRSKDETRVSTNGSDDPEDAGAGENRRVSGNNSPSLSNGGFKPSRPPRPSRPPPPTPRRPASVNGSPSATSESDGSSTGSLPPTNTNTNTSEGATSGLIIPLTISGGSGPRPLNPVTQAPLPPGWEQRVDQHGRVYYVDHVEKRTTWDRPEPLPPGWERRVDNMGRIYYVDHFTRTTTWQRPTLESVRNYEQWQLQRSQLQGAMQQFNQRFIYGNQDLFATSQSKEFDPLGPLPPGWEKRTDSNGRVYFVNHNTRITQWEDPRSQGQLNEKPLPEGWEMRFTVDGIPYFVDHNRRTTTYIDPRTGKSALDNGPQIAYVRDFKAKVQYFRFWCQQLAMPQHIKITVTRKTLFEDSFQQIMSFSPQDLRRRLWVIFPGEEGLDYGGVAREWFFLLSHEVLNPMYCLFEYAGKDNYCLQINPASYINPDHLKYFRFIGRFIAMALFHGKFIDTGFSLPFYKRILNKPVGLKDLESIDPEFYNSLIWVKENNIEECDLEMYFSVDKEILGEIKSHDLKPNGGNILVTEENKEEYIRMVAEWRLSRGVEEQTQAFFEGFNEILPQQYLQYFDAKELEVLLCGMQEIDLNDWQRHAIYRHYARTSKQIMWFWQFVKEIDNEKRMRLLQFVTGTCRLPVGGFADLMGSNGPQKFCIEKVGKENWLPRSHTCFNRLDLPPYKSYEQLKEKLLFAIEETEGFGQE

These are yes or no findings as the source states them, for the method shown. Binding seen in cells or lysates may run through a third protein. Some entries that bind do so weakly or less than the wild type.

Test [1] deals with PD-L2-FLAG (human) (UniProt Q9BQ51). Description: IP-MS and co-immunoprecipitation (FIGS. 1A, 1D).
The target is the same in test [2]. Description: summary sentence of Example 1 (IP-MS, co-immunoprecipitation).
The target in test [3] is PD-L1 (human) (UniProt Q9NZQ7). Description: co-immunoprecipitation with anti-PD-L1 antibody, Western blot, M238 R1 and H358 cells.
The target in test [4] is PD-L2-FLAG (human) (UniProt Q9BQ51). Description: co-immunoprecipitation with anti-HA beads, Western blot, HEK 293T cells.
The target of test [5] is PD-L1 (human) (UniProt Q9NZQ7). Briefly: co-immunoprecipitation with anti-FLAG M2 beads, Western blot, HEK 293T cells.

As to “E3 ligase ITCH (from UniProt Q96J02 2-903) (enzyme)”, the binding entry with PD-L2-FLAG (human) [1], in the test with PD-L2-FLAG (human) [2] and with PD-L1 (human) [3] was “binds” in each case.
Turning to “ITCH-HA (from UniProt Q96J02 2-903) (enzyme)”, the binding result with PD-L2-FLAG (human) [4] is reported as “binds”.
Regarding “ITCH-FLAG (from UniProt Q96J02 2-903) (enzyme)”, the binding entry with PD-L1 (human) [5] was “binds”.
